The values that follow come from PMC9575046.

The target of the test is tumour necrosis factor receptor 1 (human (endogenous in HepG2)). Description: co-IP; WT HepG2 cell lysate (150 mM NaCl, 20 mM Tris-HCl pH 8.0, 10% glycerol, 0.3% Nonidet P-40) incubated with anti-TNFR1 antibody (sc-8436) at 4°C overnight, protein A/G PLUS-agarose beads; immunoblot with anti-TNFR1 and anti-Ninj1; NINJ1 KO HepG2 cells as control.

These are yes or no findings as the source states them, for the method shown. Binding seen in cells or lysates may run through a third protein. Binding can be weak; no strength is given.

B1: Nerve injury-induced protein 1 (Ninjurin1) (protein, UniProt Q92982 1-152)
chain: MDSGTEEYELNGGLPPGTPGSPDASPARWGWRHGPINVNHYASKKSAAESMLDIALLMANASQLKAVVEQGPSFAFYVPLVVLISISLVLQIGVGVLLIFLVKYDLNNPAKHAKLDFLNNLATGLVFIIVVVNIFITAFGVQKPLMDMAPQQ
In the case of B1, the binding entry is recorded as “binds”.
